Source: PubChem BioAssay AID1259299 (Sanger Institute, 2017)

- Assay: 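Kinases and colorectal mutated genes needed by colorectal cancer cells, with or without drugs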 (primary screen)
- Cells: human CAR1 colorectal cancer cells
- Knock-down reagent: siRNA pool against human genes
- Treatment: anchor drug BYL719 1 µM, cetuximab 5 µg/ml or trametinib 10 nM, or DMSO vehicle alone; exposure length not given
- Measurement: 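Cell viability as fraction of non-targeting siRNA wells, mean of replicates, with robust z-score and a synergy score for each of three drugs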
- Reading the numbers: viability robust z-score, knock-down alone and viability, knock-down alone (DMSO): higher = more viable cells
- Units: viability, knock-down alone (DMSO) in fraction of control
- Hit rule: 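a gene is called essential if its knock-down-alone viability z-score drops under -3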
- Calls: active = essential (knock-down alone); inactive = no change
Here is a random part of 794 deposited reagents. 9 of all reagents (1.1%) were called active. 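Calls rest on knock-down alone; synergy scores play no part in calls, and no gene passed the synergy cut.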 Unmarked entries are inactive. No viability above 1 is reported: the scale is capped. Not all columns of the deposit are shown. Not given: the amount of reagent, the time to read-out.

MAP4K5 (GeneID 11183) scored viability robust z-score, knock-down alone -1.89; viability, knock-down alone (DMSO) = 0.753. After knock-down of MET (GeneID 4233), the screen gave viability robust z-score, knock-down alone 0.789; viability, knock-down alone (DMSO) = 1. For PAK6 (GeneID 56924), the values are viability robust z-score, knock-down alone 0.789; viability, knock-down alone (DMSO) = 1. Knock-down of GUCY2F (GeneID 2986) resulted in: viability robust z-score, knock-down alone 0.12; viability, knock-down alone (DMSO) = 0.938. After knock-down of LATS2 (GeneID 26524), the screen gave viability robust z-score, knock-down alone 0.789; viability, knock-down alone (DMSO) = 1. LMTK2 (GeneID 22853) gave viability robust z-score, knock-down alone -0.0633; viability, knock-down alone (DMSO) = 0.921.

With knock-down of SOS2 (GeneID 6655) the results were viability robust z-score, knock-down alone 0.789; viability, knock-down alone (DMSO) = 1. Against DMPK (GeneID 1760), the values are viability robust z-score, knock-down alone -1.66; viability, knock-down alone (DMSO) = 0.774. NRK (GeneID 203447) scored viability robust z-score, knock-down alone -0.237; viability, knock-down alone (DMSO) = 0.905. PFKFB1 (GeneID 5207) gave viability robust z-score, knock-down alone -0.354; viability, knock-down alone (DMSO) = 0.894. After knock-down of GUK1 (GeneID 2987), the screen gave viability robust z-score, knock-down alone 0.789; viability, knock-down alone (DMSO) = 1. Depletion of PSTK (GeneID 118672) came out at: viability robust z-score, knock-down alone 0.71; viability, knock-down alone (DMSO) = 0.993.

Against STK31 (GeneID 56164) the deposit lists viability robust z-score, knock-down alone -0.0823; viability, knock-down alone (DMSO) = 0.92. Against MYLK4 (GeneID 340156), the values are viability robust z-score, knock-down alone 0.789; viability, knock-down alone (DMSO) = 1. Silencing of NME1 (GeneID 4830) resulted in: viability robust z-score, knock-down alone 0.789; viability, knock-down alone (DMSO) = 1. Silencing of STK4 (GeneID 6789) resulted in: viability robust z-score, knock-down alone 0.226; viability, knock-down alone (DMSO) = 0.948. STK35 (GeneID 140901) gave viability robust z-score, knock-down alone -0.0851; viability, knock-down alone (DMSO) = 0.919. For LTK (GeneID 4058) the deposit lists viability robust z-score, knock-down alone -0.092; viability, knock-down alone (DMSO) = 0.919.

Knock-down of SNRK (GeneID 54861) came out at: viability robust z-score, knock-down alone -2.24; viability, knock-down alone (DMSO) = 0.72. For CAMK2N1 (GeneID 55450), the values are viability robust z-score, knock-down alone -4.13 (active); viability, knock-down alone (DMSO) = 0.546. GRK1 (GeneID 6011) showed viability robust z-score, knock-down alone 0.545; viability, knock-down alone (DMSO) = 0.977. After knock-down of WIPF1 (GeneID 7456), the screen gave viability robust z-score, knock-down alone -1.33; viability, knock-down alone (DMSO) = 0.805. Depletion of MAGI3 (GeneID 260425) resulted in: viability robust z-score, knock-down alone 0.721; viability, knock-down alone (DMSO) = 0.994. For LIMK1 (GeneID 3984) the deposit lists viability robust z-score, knock-down alone -0.151; viability, knock-down alone (DMSO) = 0.913.

With knock-down of MUSK (GeneID 4593), the screen gave viability robust z-score, knock-down alone -1.79; viability, knock-down alone (DMSO) = 0.762. CLK2 (GeneID 1196) gave viability robust z-score, knock-down alone 0.293; viability, knock-down alone (DMSO) = 0.954. CMPK1 (GeneID 51727) scored viability robust z-score, knock-down alone 0.789; viability, knock-down alone (DMSO) = 1. CAMK2B (GeneID 816) showed viability robust z-score, knock-down alone -1.31; viability, knock-down alone (DMSO) = 0.806.

Targets above whose target name begins with C or c (4):
CAMK2N1 (GeneID 55450) — viability robust z-score, knock-down alone = -4.13 (active); viability, knock-down alone (DMSO) = 0.546
CLK2 (GeneID 1196) — viability robust z-score, knock-down alone = 0.293; viability, knock-down alone (DMSO) = 0.954
CMPK1 (GeneID 51727) — viability robust z-score, knock-down alone = 0.789; viability, knock-down alone (DMSO) = 1
CAMK2B (GeneID 816) — viability robust z-score, knock-down alone = -1.31; viability, knock-down alone (DMSO) = 0.806
